Experimental data as given in patent US20190270793A1.
These are yes or no findings as the source states them, for the method shown. Some entries that bind do so weakly or less than the wild type. For some assays here: Sequences can lack the tags named with a protein.

Sequences of proteins named here, by UniProt entry; tags and fusion partners are left off. A change or cut given only in a name is not applied to a line headed by its entry. A line that says so, or that is headed by a name, gives the form on record, which may keep a tag or linker.
PHF-tau (paired helical filament-tau), partially purified from postmortem cortex of an Alzheimer patient (P10636, form named): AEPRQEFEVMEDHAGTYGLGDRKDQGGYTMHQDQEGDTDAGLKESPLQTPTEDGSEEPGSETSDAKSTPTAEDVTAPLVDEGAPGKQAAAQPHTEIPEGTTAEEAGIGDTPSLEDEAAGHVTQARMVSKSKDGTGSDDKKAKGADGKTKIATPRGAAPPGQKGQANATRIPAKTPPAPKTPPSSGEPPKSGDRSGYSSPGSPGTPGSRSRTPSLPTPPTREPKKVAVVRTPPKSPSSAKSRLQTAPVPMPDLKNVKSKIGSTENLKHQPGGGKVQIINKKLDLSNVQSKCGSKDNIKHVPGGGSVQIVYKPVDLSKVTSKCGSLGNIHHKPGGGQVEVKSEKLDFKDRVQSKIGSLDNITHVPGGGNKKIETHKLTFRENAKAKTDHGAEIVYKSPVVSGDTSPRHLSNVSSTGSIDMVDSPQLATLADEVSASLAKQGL

How the values were obtained:
[1] = molecular target: PHF-tau (paired helical filament-tau), partially purified from postmortem cortex of an Alzheimer patient (human) (UniProt P10636); test: SPR, antibody at 75, 15, 3 and 0.6 nM on PHF-tau
[2] = molecular target: PHF-tau (paired helical filament-tau), partially purified from postmortem cortex of an Alzheimer patient (human) (UniProt P10636); test: SPR sensorgrams at 75, 15, 3 and 0.6 nM
[3] = molecular target: PHF-tau (paired helical filament-tau), partially purified from postmortem cortex of an Alzheimer patient (human) (UniProt P10636); test: SPR
[4] = molecular target: PHF-tau (paired helical filament-tau), partially purified from postmortem cortex of an Alzheimer patient (human) (UniProt P10636); test: SPR, Fab at 75, 15, 3 and 0.6 nM on PHF-tau
[5] = molecular target: soluble tau (control tau; recombinant 2N4R tau, SEQ ID NO:31) (human) (UniProt P10636); test: ELISA, 2N4R Tau coated at 10 ng/mL or 1 ng/mL
[6] = molecular target: PHF-tau (paired helical filament-tau), partially purified from postmortem cortex of an Alzheimer patient (human) (UniProt P10636); test: direct ELISA, hybridoma supernatant on 25 ng/well coated PHF-tau
[7] = molecular target: soluble tau (control tau; recombinant 2N4R tau, SEQ ID NO:31) (human) (UniProt P10636); test: ELISA, full-length Tau coated at 1 ng/mL or 10 ng/mL
[8] = molecular target: soluble tau (control tau; recombinant 2N4R tau, SEQ ID NO:31) (human) (UniProt P10636); test: direct ELISA on coated 2N4R tau (10 ng/mL and 1 ng/mL), HRPO anti-mouse antibody, O.D. 450 nm
[9] = molecular target: soluble tau (control tau; recombinant 2N4R tau, SEQ ID NO:31) (human) (UniProt P10636); test: direct ELISA, hybridoma supernatant on 10 ng/well coated control tau

Measured: binding

B1: PT82 mAb, recombinantly expressed (mouse IgG2a/kappa) (antibody, V domains shown)
VH: EVKLEESGGGLVQPGGSMKLSCVASGFTFSNYWMNWIRQSPEKGLEWVAQIRLQSDNYATRYAESVKGRFTISRDESKTSVYLQMNNLRTEDTGIYYCTGGTTYWGQGTLVTVSA
VL: DIVMTQSQKFMSTSVGDRVSITCKASQNVGTAVAWYQQKPGQSPKLLIYSASIRYTGVPDRFTGSGSGTDFTLTINYMQSEDLADYFCQQFSSYPYTFGGGTKLEIK
binds: [1] | [2] | [3]

B2: PT82 Fab (chimeric: mouse variable domains on human IgG1/kappa constant domains, His tag at the C-terminus of the heavy chain) (Fab, V domains shown)
VH: EVKLEESGGGLVQPGGSMKLSCVASGFTFSNYWMNWIRQSPEKGLEWVAQIRLQSDNYATRYAESVKGRFTISRDESKTSVYLQMNNLRTEDTGIYYCTGGTTYWGQGTLVTVSA
VL: DIVMTQSQKFMSTSVGDRVSITCKASQNVGTAVAWYQQKPGQSPKLLIYSASIRYTGVPDRFTGSGSGTDFTLTINYMQSEDLADYFCQQFSSYPYTFGGGTKLEIK
binds: [2] | [3] | [4]

B3: PT82 from hybridoma supernatant (hybridoma-produced mouse monoclonal antibody) (antibody, V domains shown)
VH: EVKLEESGGGLVQPGGSMKLSCVASGFTFSNYWMNWIRQSPEKGLEWVAQIRLQSDNYATRYAESVKGRFTISRDESKTSVYLQMNNLRTEDTGIYYCTGGTTYWGQGTLVTVSA
VL: DIVMTQSQKFMSTSVGDRVSITCKASQNVGTAVAWYQQKPGQSPKLLIYSASIRYTGVPDRFTGSGSGTDFTLTINYMQSEDLADYFCQQFSSYPYTFGGGTKLEIK
binds: [5] | [6] | [7] | [8] | [9]
